Drawing on PMC3975354, this text covers binding for one molecule.

Results are given in words; binding and its absence hold for the method and conditions named. Binding seen in cells or lysates may run through a third protein. Some entries that bind do so weakly or less than the wild type.

In experiment [1] the target is T1, human VCAM-1 over-expressed in NMuMG cells (pBabe-puro-VCAM-1) (human) (UniProt P19320).
T1 sequence: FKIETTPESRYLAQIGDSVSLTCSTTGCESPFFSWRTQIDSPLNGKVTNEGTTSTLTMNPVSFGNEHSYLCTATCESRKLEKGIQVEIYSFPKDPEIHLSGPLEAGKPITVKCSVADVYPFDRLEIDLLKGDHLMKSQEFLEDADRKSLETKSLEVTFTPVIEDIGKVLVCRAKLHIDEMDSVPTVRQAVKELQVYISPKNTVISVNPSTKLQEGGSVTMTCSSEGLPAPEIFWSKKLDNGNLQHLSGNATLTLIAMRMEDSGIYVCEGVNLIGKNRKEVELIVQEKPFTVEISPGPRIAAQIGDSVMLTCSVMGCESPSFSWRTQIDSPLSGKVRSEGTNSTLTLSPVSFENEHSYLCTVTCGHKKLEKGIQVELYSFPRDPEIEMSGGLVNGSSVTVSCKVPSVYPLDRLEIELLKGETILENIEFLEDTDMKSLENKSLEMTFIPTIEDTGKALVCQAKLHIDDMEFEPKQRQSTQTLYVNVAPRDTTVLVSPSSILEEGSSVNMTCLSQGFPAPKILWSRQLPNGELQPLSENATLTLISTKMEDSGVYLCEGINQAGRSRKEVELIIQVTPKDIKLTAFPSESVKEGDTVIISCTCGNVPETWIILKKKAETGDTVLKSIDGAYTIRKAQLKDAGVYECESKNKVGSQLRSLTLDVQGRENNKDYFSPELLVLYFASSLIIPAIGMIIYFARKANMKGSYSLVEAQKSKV
The experiment in a line: co-IP; NMuMG cells (eGFP control and VCAM-1 over-expressing) lysed in 1x RIPA buffer; IP with anti-VCAM-1 antibody or normal IgG and protein A/G-agarose, overnight at 4 °C, five washes; Western blot.

The target of experiment [2] is T2, VCAM-1 (vascular cell adhesion molecule-1), endogenous in NMuMG cells (mouse (endogenous in NMuMG)) (UniProt P29533).
T2 sequence: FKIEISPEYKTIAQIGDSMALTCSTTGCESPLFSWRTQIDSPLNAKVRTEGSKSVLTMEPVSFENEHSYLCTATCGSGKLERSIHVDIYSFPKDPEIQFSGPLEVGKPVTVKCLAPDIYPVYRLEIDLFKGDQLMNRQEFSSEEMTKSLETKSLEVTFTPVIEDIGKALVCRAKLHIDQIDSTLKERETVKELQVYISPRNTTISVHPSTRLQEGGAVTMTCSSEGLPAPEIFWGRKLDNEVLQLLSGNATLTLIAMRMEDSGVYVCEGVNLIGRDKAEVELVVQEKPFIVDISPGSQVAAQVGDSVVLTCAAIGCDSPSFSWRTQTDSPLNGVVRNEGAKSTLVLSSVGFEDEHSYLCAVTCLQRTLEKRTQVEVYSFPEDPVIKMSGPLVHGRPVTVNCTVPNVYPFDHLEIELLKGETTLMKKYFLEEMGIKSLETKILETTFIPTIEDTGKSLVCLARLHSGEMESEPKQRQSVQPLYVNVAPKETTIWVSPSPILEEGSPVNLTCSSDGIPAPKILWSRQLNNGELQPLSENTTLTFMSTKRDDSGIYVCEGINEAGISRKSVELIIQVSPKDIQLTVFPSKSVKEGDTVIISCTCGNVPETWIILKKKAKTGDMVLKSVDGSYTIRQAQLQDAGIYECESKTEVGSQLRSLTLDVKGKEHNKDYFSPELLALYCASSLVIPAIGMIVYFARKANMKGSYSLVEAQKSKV
The description is as above.

B1: CD44, endogenous in NMuMG cells (protein, UniProt P15379 23-778)
chain: QIDLNVTCRYAGVFHVEKNGRYSISRTEAADLCQAFNSTLPTMDQMKLALSKGFETCRYGFIEGNVVIPRIHPNAICAANHTGVYILVTSNTSHYDTYCFNASAPPEEDCTSVTDLPNSFDGPVTITIVNRDGTRYSKKGEYRTHQEDIDASNIIDDDVSSGSTIEKSTPEGYILHTYLPTEQPTGDQDDSFFIRSTLATIASTVHSKSHAAAQKQNNWIWSWFGNSQSTTQTQEPTTSATTALMTTPETPPKRQEAQNWFSWLFQPSESKSHLHTTTKMPGTESNTNPTGWEPNEENEDETDTYPSFSGSGIDDDEDFISSTIATTPRVSARTEDNQDWTQWKPNHSNPEVLLQTTTRMADIDRISTSAHGENWTPEPQPPFNNHEYQDEEETPHATSTTPNSTAEAAATQQETWFQNGWQGKNPPTPSEDSHVTEGTTASAHNNHPSQRITTQSQEDVSWTDFFDPISHPMGQGHQTESKDTDSSHSTTLQPTAAPNTHLVEDLNRTGPLSVTTPQSHSQNFSTLHGEPEEDENYPTTSILPSSTKSSAKDARRGGSLPTDTTTSVEGYTFQYPDTMENGTLFPVTPAKTEVFGETEVTLATDSNVNVDGSLPGDRDSSKDSRGSSRTVTHGSELAGHSSANQDSGVTTTSGPMRRPQIPEWLIILASLLALALILAVCIAVNSRRRCGQKKKLVINGGNGTVEDRKPSELNGEASKSQEMVHLVNKEPSETPDQCMTADETRNLQSVDMKIGV
For the molecule B1, the binding result in experiment [1] and in experiment [2] was “binds” throughout.
